Assay results reported in the supplement of paper PMC6078165.

Tested on: HCC1143
Test: relative JC-1 red fluorescence (viability) vs pre-drug, coculture with fibroblast (fraction); higher = more viable cancer cells
Conditions: 0.1 µM
Experimental: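 JC-1 labelled TNBC cells cocultured 1:1 (1,500 cells each) with CellTrace Violet stained primary or stromal fibroblasts in 384-well plates in FluoroBrite medium, treated with one of 42 anticancer drugs at 0.1, 1, 10 or 100 uM. JC-1 red fluorescence (mitochondrial integrity in cancer cells only) was read by plate reader every 8 h for 72 h. Values are normalised to each well's pre-drug value. The stock of one drug was tenfold lower, so its dose labels may be too high.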

CC(=O)c1c(C)c2cnc(Nc3ccc(N4CCNCC4)cn3)nc2n(C2CCCC2)c1=O [Palbociclib]
relative JC-1 red fluorescence
Conditions	8 h	16 h	24 h	32 h	40 h	48 h	56 h	64 h	72 h
coculture fibroblast: C12385	0.847	0.763	0.705	0.644	0.577	0.541	0.5	0.454	0.431
coculture fibroblast: H6013	0.815	0.718	0.719	0.724	0.668	0.664	0.624	0.606	0.576
coculture fibroblast: H6019	0.8088	0.742	0.7	0.654	0.63	0.599	0.549	0.51	0.481
coculture fibroblast: H6076	0.796	0.832	0.761	0.664	0.638	0.605	0.558	0.523	0.515
coculture fibroblast: H6231	0.827	0.875	0.7782	0.61	0.6628	0.6164	0.571	0.531	0.497
coculture fibroblast: HADF	0.7694	0.709	0.696	0.717	0.637	0.637	0.607	0.586	0.568
coculture fibroblast: HCFa	0.785	0.671	0.651	0.642	0.553	0.523	0.482	0.453	0.429
coculture fibroblast: HCPF	0.8037	0.8359	0.7502	0.6247	0.6455	0.6066	0.5754	0.5375	0.52
coculture fibroblast: HHSteC	0.8545	0.745	0.7173	0.681	0.613	0.589	0.546	0.511	0.4544
coculture fibroblast: HMF	0.795	0.849	0.778	0.634	0.6751	0.6314	0.5811	0.5414	0.498
coculture fibroblast: HPFa	0.9334	0.8263	0.7783	0.686	0.607	0.561	0.503	0.451	0.402
coculture fibroblast: HUF	0.873	0.766	0.695	0.622	0.574	0.542	0.491	0.456	0.426
coculture fibroblast: Hs5	0.891	0.901	0.865	0.848	0.805	0.787	0.767	0.742	0.745
coculture fibroblast: Hs27A	0.732	0.66	0.672	0.705	0.603	0.615	0.566	0.538	0.497
coculture fibroblast: Hs343T	0.7973	0.879	0.78	0.635	0.664	0.614	0.549	0.519	0.475
coculture fibroblast: WS1	0.8325	0.718	0.675	0.6	0.542	0.512	0.467	0.434	0.409

The reference is the same well before dosing, and untreated signal decays as well.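 Fibroblast labels name human fibroblasts: mostly primary ones from tissues such as uterus (C12385, HUF), lung (H6013), bone (Hs27A), adrenal (HADF) and skin (WS1), plus mammary HMF and breast cancer-associated Hs343T. The cancer cells are basal-like or mesenchymal-like triple-negative breast cancer lines. The paper calls a changed response a hit when it shifts by more than 3x the replicate standard deviation. The tissue of the other fibroblasts is not given here.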
